Assay: Tc-99m labeling as a function of ligand amount

For `N[C@@H](CCCCN(Cc1ccccn1)Cc1ccccn1)C(=O)O` [DpK], the “% Labeled” value (Ligand amount 0.1 μg) was 5%, the “% Labeled” value (Ligand amount 1 μg) was 16% and the “% Labeled” value (Ligand amount 10 μg) was 32%. For the same compound, the “% Labeled” value (Ligand amount 100 μg) was 47% and the “% Labeled” value (Ligand amount 500 μg) was 100%.

In the case of `O=C(NC(CCCCN(Cc1ccccn1)Cc1ccccn1)C(=O)O)OCC1c2ccccc2-c2ccccc21` (stereo not drawn) [Fmoc-DpK, [ε-{N,N-di(pyridyl-2-methyl)}α-(fmoc)lysine]], the “% Labeled” value (Ligand amount 0.1 μg) is reported as 7%, the “% Labeled” value (Ligand amount 1 μg) is reported as 52% and the “% Labeled” value (Ligand amount 10 μg) is reported as 93.9%. For the same compound, the “% Labeled” value (Ligand amount 100 μg) was 100% and the “% Labeled” value (Ligand amount 500 μg) was 100%.
